Drawing on patent US20100009920A1, “TTK AS TUMOR MARKER AND THERAPEUTIC TARGET FOR LUNG CANCER” (priority 2006, published 2010), this text covers binding for one molecule.

Experiment [1] deals with Epidermal growth factor receptor (endogenous, A549 lung cancer cells) (human) (UniProt P00533). In words: co-immunoprecipitation with anti-TTK antibodies from A549 cell extracts, without or with EGF (100 nM); western blot for endogenous EGFR (FIG. 4b legend). Background: In western blotting, separated proteins are transferred to a membrane and probed.
For experiment [2] the target is unchanged. In words: co-immunoprecipitation with anti-TTK antibodies from A549 cell extracts, without or with EGF (100 nM); western blot for endogenous EGFR.

Results are given in words; binding and its absence hold for the method and conditions named. Binding seen in cells or lysates may run through a third protein. Some binding calls cover weakened binding; strength is not graded here.

B1: TTK protein kinase (endogenous, A549 lung cancer cells) (enzyme)
chain: MESEDLSGRELTIDSIMNKVRDIKNKFKNEDLTDELSLNKISADTTDNSGTVNQIMMMANNPEDWLSLLLKLEKNSVPLSDALLNKLIGRYSQAIEALPPDKYGQNESFARIQVRFAELKAIQEPDDARDYFQMARANCKKFAFVHISFAQFELSQGNVKKSKQLLQKAVERGAVPLEMLEIALRNLNLQKKQLLSEEEKKNLSASTVLTAQESFSGSLGHLQNRNNSCDSRGQTTKARFLYGENMPPQDAEIGYRNSLRQTNKTKQSCPFGRVPVNLLNSPDCDVKTDDSVVPCFMKRQTSRSECRDLVVPGSKPSGNDSCELRNLKSVQNSHFKEPLVSDEKSSELIITDSITLKNKTESSLLAKLEETKEYQEPEVPESNQKQWQSKRKSECINQNPAASSNHWQIPELARKVNTEQKHTTFEQPVFSVSKQSPPISTSKWFDPKSICKTPSSNTLDDYMSCFRTPVVKNDFPPACQLSTPYGQPACFQQQQHQILATPLQNLQVLASSSANECISVKGRIYSILKQIGSGGSSKVFQVLNEKKQIYAIKYVNLEEADNQTLDSYRNEIAYLNKLQQHSDKIIRLYDYEITDQYIYMVMECGNIDLNSWLKKKKSIDPWERKSYWKNMLEAVHTIHQHGIVHSDLKPANFLIVDGMLKLIDFGIANQMQPDTTSVVKDSQVGTVNYMPPEAIKDMSSSRENGKSKSKISPKSDVWSLGCILYYMTYGKTPFQQIINQISKLHAIIDPNHEIEFPDIPEKDLQDVLKCCLKRDPKQRISIPELLAHPYVQIQTHPVNQMAKGTTEEMKYVLGQLVGLNSPNSILKAAKTLYEHYSGGESHNSSSSKTFEKKRGKK
On to B1, for which the binding result in experiment [1] and in experiment [2] was “binds” in each case.
